In publication PMC10307831, “GATA zinc finger protein p66β promotes breast cancer cell migration by acting as a co-activator of Snail” one finds binding data, which are given here for one substance.

Protein sequences, listed by entry. Tags and fused reporters are not part of them.
UniProt O95863: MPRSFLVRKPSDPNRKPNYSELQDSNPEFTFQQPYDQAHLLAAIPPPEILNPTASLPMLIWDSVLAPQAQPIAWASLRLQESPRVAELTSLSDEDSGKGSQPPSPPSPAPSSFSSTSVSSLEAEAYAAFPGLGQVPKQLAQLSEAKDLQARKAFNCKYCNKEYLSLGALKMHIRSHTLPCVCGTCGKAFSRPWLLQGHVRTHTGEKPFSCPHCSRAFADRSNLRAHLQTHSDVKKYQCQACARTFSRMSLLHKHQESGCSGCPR
UniProt Q8WXI9: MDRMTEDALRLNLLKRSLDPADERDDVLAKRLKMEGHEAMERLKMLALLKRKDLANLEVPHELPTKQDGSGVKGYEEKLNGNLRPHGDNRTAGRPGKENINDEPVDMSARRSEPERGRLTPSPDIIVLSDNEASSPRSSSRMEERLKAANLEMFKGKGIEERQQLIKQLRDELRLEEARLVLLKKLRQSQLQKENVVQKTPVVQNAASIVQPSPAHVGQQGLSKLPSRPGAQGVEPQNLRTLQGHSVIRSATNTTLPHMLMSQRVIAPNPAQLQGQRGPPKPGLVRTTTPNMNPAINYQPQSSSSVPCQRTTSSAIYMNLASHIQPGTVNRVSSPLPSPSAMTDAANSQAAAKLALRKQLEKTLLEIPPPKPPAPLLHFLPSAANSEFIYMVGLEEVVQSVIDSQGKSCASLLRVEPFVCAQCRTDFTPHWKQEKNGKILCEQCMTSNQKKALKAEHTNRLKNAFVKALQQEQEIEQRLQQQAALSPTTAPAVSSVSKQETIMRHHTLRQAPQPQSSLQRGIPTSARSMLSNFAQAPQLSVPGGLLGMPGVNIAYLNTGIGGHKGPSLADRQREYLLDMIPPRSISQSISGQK

The target in this assay is Flag-Snail (stably expressed in HEK-293T cells) (UniProt O95863). Description: affinity purification with mass spectrometry; HEK-293T cells stably expressing Flag-Snail; lysate on anti-Flag M2 affinity gel, washed with BC500 (500 mM KCl), eluted with 3xFlag peptide; SDS-PAGE, bands excised and identified by mass spectrometry.

These are yes or no findings as the source states them, for the method shown. In cells and extracts the contact can be indirect. These calls come from enrichment with a bait or labelling near it, and not all partners need be listed.

As for “p66β (endogenous, HEK-293T cells) (from UniProt Q8WXI9 1-593)”, the binding entry is “binds”.
